Laboratory results from publication PMC4912613, “A broad analysis of resistance development in the malaria parasite” (Nature Communications, 2016).

Legend:
Format in all cases: cell-based, Plasmodium falciparum
[1] = test system: ATQ-R5 (cytb F267V, parent 3D7); test: Cross-resistance EC50 assay, ATQ-R5; settings: SYBR green 72 hour assay, asynchronized parasites, 96-well or 1536-well format
Method in brief: (§1)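 Asexual blood-stage P. falciparum, resistant lines vs parent or 3D7, tested under identical conditions; EC50 from 48-h ^3H-hypoxanthine incorporation (0.5% parasitemia, 2% haematocrit, label added at 24 h) or 72-h SYBR Green (0.3% parasitemia, 4% haematocrit). Fold shift taken against parent; >5-fold flagged.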

W2 = test: Cross-resistance EC50 assay, W2 parent; settings: hypoxanthine 48-hour assay; synchronized parasites; 96-well format; strain W2F6 (parent)
Method in brief: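 P. falciparum asexual blood-stage proliferation, parent/sensitive strain of each resistant clone; 48-h assay with rings (0.5% parasitemia, 2.0% haematocrit) in RPMI-1640/5% AlbuMAX, ^3H-hypoxanthine added at 24 h, normalized to no-drug and 2 μM artesunate controls; alternatively 72-h SYBR Green assay (0.3% parasitemia, 4% haematocrit). EC50s from triplicate fits.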

[2] = test system: CYTb-G131S (cytb G131S, parent Dd2); test: Cross-resistance EC50 assay, CYTb-G131S; settings: SYBR green 72 hour assay; synchronized parasites; 384-well format; strain CYTb:G131S (Dd2 parent)
Method in brief: as §1

[3] = test system: GNF156R (PfCARL L830V, S1076I and M81I, parent Dd2); test: Cross-resistance EC50 assay, GNF156R; settings: SYBR green 72 hour assay, asynchronized parasites, 96-well or 1536-well format
Method in brief: as §1

Row | SMILES | ATQ-R5 (3D7 Parent) Average Hill Slope [1] | W2F6 (PARENT) Average Hill Slope (W2) | CYTb:G131S (Dd2 Parent) Average Hill Slope [2] | GNF156R (Dd2 Parent) Average Hill Slope [3]
1 | COc1ccccc1CNC(=O)CCn1c(=O)[nH]c2ccsc2c1=O [MMV019066] | 0.61 | 0.89 | 1.49 | 0.63
2 | CN(C)CCCN(C)C(=O)C1Cc2cc(-c3ccccc3)ccc2N1S(=O)(=O)c1ccccc1 (stereo not shown) [MMV028895] | 1.02 | 1.02 | 2.60 | 2.64
3 | COc1cc(-c2nc(-c3ccccc3)c(-c3ccccc3)[nH]2)ccc1OCCN(C)C [MMV027496] | 3.59 | 4.27 | 25.1 | 1.31
4 | Nc1ccc(-c2nc3cc(Oc4ccc(Oc5ccc6[nH]c(-c7ccc(N)cc7)nc6c5)cc4)ccc3[nH]2)cc1 [MMV011895] | 2.59 | 3.17 | 3.79 | 1.35
